# Values from PubChem BioAssay AID1508597 (Cure First, 2020)
# Assay: 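Survival screen with siRNA in ovarian cancer cells derived from patients, with or without rucaparib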 (primary screen)
# System: human ovarian carcinoma lines grown from tumours: OCI-P5x (papillary serous) and OCI-C5x (clear cell)
# Reagents: siRNA pool against human genes, 1.25 pmol siRNA per well
# Timing: 72 h or 96 h, depending on the cell culture
# Treatment: rucaparib 20 µM (about IC30) or vehicle, present until read-out
# Rucaparib or vehicle: Rucaparib
# Cell line: OCI-P5x (serous)
# Read-out: 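Luminescent ATP-based viability assay read 72 or 96 h after transfection, depending on culture, given as normalised percent viability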
# Scale: viability, normalised: higher = more viable cells remaining
# Call rule: 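a well counts as a hit if its normalised viability is under 80 percent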
# Meaning of the calls: active = viability under 80%; inactive = viability 80% or more
# Shown is a random part of the about 2,100 reagents, under one of the conditions tested. 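Calls flag viability under 80% in either arm, not effects specific to rucaparib; the reference for percent is not stated.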 A reagent listed more than once was tested more than once; the source does not tell the runs apart. The record does not give: the 100% reference.
target gene,technical replicate,"viability, normalised (%)",call
TBK1,1,51,active
TBK1,2,61.4,active
TBK1,3,70.6,active
MYOD1,1,43.7,active
MYOD1,2,33,active
MYOD1,3,46.3,active
PRKAA2,1,99.6,inactive
PRKAA2,2,91.2,inactive
PRKAA2,3,93,inactive
MYOCD,1,33.6,active
MYOCD,2,55.1,active
MYOCD,3,50.7,active
MPP2,1,107,inactive
MPP2,2,115,inactive
MPP2,3,112,inactive
RECQL,1,83.6,inactive
RECQL,1,41.8,active
RECQL,2,43.3,active
RECQL,2,75.8,active
RECQL,3,67.1,active
RECQL,3,61.3,active
INO80B,1,52.2,active
INO80B,2,49.1,active
INO80B,3,54.5,active
PTPRC,1,42.7,active
PTPRC,2,34.1,active
PTPRC,3,43.8,active
H4C5,1,73,active
H4C5,2,75.7,active
H4C5,3,69.9,active
UTY,1,50.6,active
UTY,2,52.7,active
UTY,3,50.2,active
RAD21,1,55.3,active
RAD21,1,68.2,active
RAD21,2,55.5,active
RAD21,2,48.8,active
RAD21,3,86.4,inactive
RAD21,3,80.5,inactive
